The exact form of at least one protein or probe is not confirmed. For some assays here: No signal at the amounts used counts as a negative. For some assays here: The comparison behind a weaker result is the experiment's own reference, which may not be listed here.
How the values were obtained:
[1] = system: IgG, polyclonal mixed human (Homo sapiens); assay: pull-down; settings: 5'-aminohexyl, immobilized on Sepharose, purified native protein, protein details: ChromPure, Jackson ImmunoResearch
[2] = system: IgG Fab'2 fragment (Example 2); assay: pull-down; settings: immobilized on Sepharose, 100 mM TEAA, 20 mM Mg2+, pH 7, purified native protein
[3] = system: IgG Fc fragment (human) (Homo sapiens); assay: filter binding; settings: printed negl, pH 6, 41 mM Na+, purified native protein

**Q.** Does TGTGTGTGTGTGTGT [(TG)7T control] bind ([1]; control, retention much lower than C7 and H2, single-stranded DNA)?
**A.** binds more weakly

**Q.** Does TGTGTGTGTGTGTGT [(TG)7T control] bind ([2]; 5' aminohexyl, retention on DNA-Sepharose H2>C7>>TG repeat>blank, single-stranded DNA)?
**A.** binds more weakly

**Q.** Does TTTTCGCGCGTTAACGCGCGAA [RAD16] bind ([3]; single-stranded DNA)?
**A.** no binding

**Q.** Which results are given for TTTTGGTTGGGGTGGTTGG [H2]?
**A.** binding result ([1]; bead retention H2>C7>>TG repeat, 100 mM TEAA, 20 mM Mg2+, pH 7, folded or branched DNA): binds; binding result ([2]; 5'-aminohexyl, H2>C7>>TG repeat, folded or branched DNA): binds

**Q.** Does TTTTCGCGCGTTTCCGCGCGAA [C7] bind ([2]; 5' aminohexyl, retention on DNA-Sepharose H2>C7>>TG repeat>blank, folded or branched DNA)?
**A.** binds

**Q.** Does CCTTCCTTTGGAAGGTTG [RAD23] bind ([3]; folded or branched DNA)?
**A.** no binding

**Q.** Does TTTTCGCGCGTACGCGCGCGAA [RAD15] bind ([3]; single-stranded DNA)?
**A.** no binding

From patent US20100233714
